Reference: PMC4519142
No constants are given. Whether binding was seen depends on the method and setting. Some results given as binding are weak or reduced against the parent protein; the word gives no strength. Where a sequence is shown, tags or fusion partners need not be part of it.

Molecular target: T1, PDZD7 (yeast two-hybrid fusion) (UniProt Q9H5P4)
T1 sequence: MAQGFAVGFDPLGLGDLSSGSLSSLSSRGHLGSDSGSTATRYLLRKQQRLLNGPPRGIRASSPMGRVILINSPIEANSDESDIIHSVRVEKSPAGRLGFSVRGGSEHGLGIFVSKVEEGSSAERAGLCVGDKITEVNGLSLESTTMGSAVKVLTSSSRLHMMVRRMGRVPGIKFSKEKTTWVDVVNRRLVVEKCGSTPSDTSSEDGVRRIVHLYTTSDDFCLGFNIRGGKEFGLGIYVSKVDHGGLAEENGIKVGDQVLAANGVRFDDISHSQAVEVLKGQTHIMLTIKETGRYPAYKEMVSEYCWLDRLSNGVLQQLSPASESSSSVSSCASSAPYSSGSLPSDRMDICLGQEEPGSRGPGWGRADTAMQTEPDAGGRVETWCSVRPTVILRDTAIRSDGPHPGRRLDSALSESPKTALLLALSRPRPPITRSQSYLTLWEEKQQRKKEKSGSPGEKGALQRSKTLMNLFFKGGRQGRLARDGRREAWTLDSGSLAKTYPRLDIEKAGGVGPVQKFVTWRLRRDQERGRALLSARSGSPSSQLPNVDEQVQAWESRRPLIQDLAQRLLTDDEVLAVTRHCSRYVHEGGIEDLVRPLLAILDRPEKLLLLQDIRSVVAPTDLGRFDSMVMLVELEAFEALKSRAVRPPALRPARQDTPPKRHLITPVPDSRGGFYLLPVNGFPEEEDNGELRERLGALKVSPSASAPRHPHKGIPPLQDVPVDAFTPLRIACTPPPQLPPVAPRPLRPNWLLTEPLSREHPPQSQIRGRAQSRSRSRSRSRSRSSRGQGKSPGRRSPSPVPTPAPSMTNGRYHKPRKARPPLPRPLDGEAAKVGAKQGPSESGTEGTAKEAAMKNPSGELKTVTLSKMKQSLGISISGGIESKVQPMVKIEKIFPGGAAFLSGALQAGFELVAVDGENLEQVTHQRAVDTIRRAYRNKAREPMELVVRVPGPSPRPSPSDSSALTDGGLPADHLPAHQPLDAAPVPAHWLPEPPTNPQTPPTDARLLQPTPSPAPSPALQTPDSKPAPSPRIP
Assay: two-hybrid; dedicated yeast two-hybrid screen of 200 (predicted) ciliary proteins

binding: binds
B1: IFT57 (protein, UniProt Q9NWB7 1-429)
chain: MTAALAVVTTSGLEDGVPRSRGEGTGEVVLERGPGAAYHMFVVMEDLVEKLKLLRYEEEFLRKSNLKAPSRHYFALPTNPGEQFYMFCTLAAWLINKAGRPFEQPQEYDDPNATISNILSELRSFGRTADFPPSKLKSGYGEHVCYVLDCFAEEALKYIGFTWKRPIYPVEELEEESVAEDDAELTLNKVDEEFVEEETDNEENFIDLNVLKAQTYHLDMNETAKQEDILESTTDAAEWSLEVERVLPQLKVTIRTDNKDWRIHVDQMHQHRSGIESALKETKGFLDKLHNEITRTLEKISSREKYINNQLENLVQEYRAAQAQLSEAKERYQQGNGGVTERTRLLSEVMEELEKVKQEMEEKGSSMTDGAPLVKIKQSLTKLKQETVEMDIRIGIVEHTLLQSKLKEKSNMTRNMHATVIPEPATGFY
